Taken from: PubChem BioAssay AID652243 (Drosophila RNAi Screening Center, 2013)

Test: 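Knock-downs that decrease or increase androgen receptor reporter signal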 (primary screen)
Cell system: Drosophila S2R+ cells
Knock-down reagent: long dsRNA against Drosophila genes
Timing: 72 h (48 h, then 24 h hormone)
Challenge: synthetic androgen R1881 at 10 nM for 24 h
Measurement: 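Firefly light from an androgen-responsive reporter and Renilla control light per well, raw and unnormalised, for each of two replicates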
Scale: firefly reporter light: higher = more light from androgen-responsive reporter; Renilla control light: higher = more constitutive control signal (cell number, transfection)
Rule for the call: 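Across duplicate plates, a knock-down whose log firefly/Renilla ratio shifted a set fold down or up from the GFP/LacZ control mean was a hit; the downward cut appears as both 1.5 and 3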
Calls: active = hit: reporter lowered or raised; inactive = no hit
In all, the deposit lists about 24,000 reagents; shown is a random part of those that have a named target and a result. In the full data, 246 (1%) got an active call. 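Plates not normalised; calls are printed but the firefly/Renilla ratio behind them is not deposited; fold cut for lowering reported inconsistently.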 The raw values are shown without normalisation. Unmarked entries are inactive. Reagent sequences are not shown. The record does not give: the amount of reagent.

With lncRNA:mimi (GeneID 12798523) [DRSC21429], what does the deposit list?
firefly reporter light, replicate 1: 8.24e5; firefly reporter light, replicate 2: 8.68e5; Renilla control light, replicate 1: 1.95e6; Renilla control light, replicate 2: 1.83e6

How did the screen score CG10341 (GeneID 35125) [DRSC02040]?
firefly reporter light, replicate 1: 1.28e6; firefly reporter light, replicate 2: 1.03e6; Renilla control light, replicate 1: 1.50e6; Renilla control light, replicate 2: 1.61e6

How did the screen score Prp16 (GeneID 32373) [DRSC19538]?
firefly reporter light, replicate 1: 35878; firefly reporter light, replicate 2: 34161; Renilla control light, replicate 1: 3.81e5; Renilla control light, replicate 2: 3.69e5

What did the screen give for Prp16 (GeneID 32373) [DRSC19542]?
firefly reporter light, replicate 1: 3.34e5; firefly reporter light, replicate 2: 3.97e5; Renilla control light, replicate 1: 3.88e6; Renilla control light, replicate 2: 4.37e6

How did the screen score cbc (GeneID 36494) [DRSC06957]?
firefly reporter light, replicate 1: 1.08e6; firefly reporter light, replicate 2: 1.08e6; Renilla control light, replicate 1: 2.39e6; Renilla control light, replicate 2: 2.48e6

For l(2)SH0834 (GeneID 34386) [DRSC02854], what was measured?
firefly reporter light, replicate 1: 1.77e5; firefly reporter light, replicate 2: 1.45e5; Renilla control light, replicate 1: 1.01e6; Renilla control light, replicate 2: 9.71e5

With CG31248 (GeneID 40853) [DRSC22722], what was measured?
firefly reporter light, replicate 1: 6.83e5; firefly reporter light, replicate 2: 7.75e5; Renilla control light, replicate 1: 1.01e6; Renilla control light, replicate 2: 1.37e6

Which result is listed for NetA (GeneID 32398) [DRSC20261]?
firefly reporter light, replicate 1: 3.68e5; firefly reporter light, replicate 2: 4.70e5; Renilla control light, replicate 1: 2.76e6; Renilla control light, replicate 2: 2.69e6

With CG9592 (GeneID 39585) [DRSC11078], what was measured?
firefly reporter light, replicate 1: 2.82e5; firefly reporter light, replicate 2: 2.01e5; Renilla control light, replicate 1: 2.36e6; Renilla control light, replicate 2: 1.74e6

For CG16896 (GeneID 37977) [DRSC04284], what does the deposit list?
firefly reporter light, replicate 1: 1.09e6; firefly reporter light, replicate 2: 9.27e5; Renilla control light, replicate 1: 1.09e6; Renilla control light, replicate 2: 1.38e6

With CG42382 (GeneID 35938) [DRSC07671], what does the deposit list?
firefly reporter light, replicate 1: 2.36e5; firefly reporter light, replicate 2: 1.34e5; Renilla control light, replicate 1: 1.58e6; Renilla control light, replicate 2: 9.63e5

With CG13896 (GeneID 38089) [DRSC08366], what does the deposit list?
firefly reporter light, replicate 1: 1.05e5; firefly reporter light, replicate 2: 1.22e5; Renilla control light, replicate 1: 1.14e6; Renilla control light, replicate 2: 1.51e6
